Test results reported in PubChem BioAssay AID1347076 (National Center for Advancing Translational Sciences (NCATS), 2019).
In all, about 400,000 compounds went through this assay and about 13,000 (3.2%) were called active. Inconclusive results, whose numbers are uncertain, are shown with a selection of clear calls. Calls come from the whole dose curve; as a rule, active = well fitted cell-killing curve with a large enough effect; inconclusive = small, poorly fitted or top-dose-only effect, or effect the other way; inactive = flat fitted curve, though single readings scatter. Potencies beside an inconclusive call are fits to weak or partial responses and may not hold up.

Experiment: qHTS assay for MDR1-selective chemotherapeutics: Primary screen using the drug-selected MDR subline cells KB-V1; note: nearly all actives have a fitted effect of over 60% in size
Conditions: KB-V1 MDR cells viability, CellTiter-Glo, 72 h; activity change, negative = cytotoxicity: at 46.1 µM (top of the series)
Outline: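 KB-V1 cells (P-gp-expressing MDR subline of KB-3-1) in phenol-red-free DMEM with 10% FBS were exposed to library compounds over a concentration series for 72 h at 37 degrees C. Viability read by CellTiter-Glo luminescence; concentration-effect curves fitted after normalization.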
% is set by controls: 0 for no effect and ±100 for the full control effect; potency is the fitted concentration of half-maximal effect.

Compound | Potency | activity change, negative = cytotoxicity
COc1ccc(/C=N/Nc2cc(C)nc3ccccc23)cc1 | inconclusive: 4.11 µM [cytotoxic, partial curve, poor fit] | 
COc1cc(CCN(C(=O)c2cccc(S(C)(=O)=O)c2)C(CCc2ccccc2)c2nc3ccccc3[nH]2)cc(OC)c1 (centres undefined) | inconclusive: 20.6 µM [cytotoxic, single point] | 
CCCn1c(SCC(=O)c2cc(C)n(-c3ccc4c(c3)OCO4)c2C)n[nH]c1=O | active: 2.91 µM | 
COc1ccc(NC(=O)Cc2ccc(C)c(C)c2)cc1Cl | inconclusive: 18.4 µM [cytotoxic, partial curve, poor fit] | 
Cc1ccc(S(=O)(=O)N(C)C[C@@H]2Oc3ncc(C#CCC(C)C)cc3C(=O)N([C@H](C)CO)C[C@H]2C)cc1 | inconclusive: 29.1 µM [rising, single point] | 
Cc1c(C(=O)N(Cc2ccccc2Cl)C2CCS(=O)(=O)C2)oc2ccccc12 (centres undefined) |  | inactive: 7.05%
Cc1cccc(-n2ncc(C#N)c2-n2cccc2)c1 | inconclusive: 35.5 µM [cytotoxic, single point] | 
COC(=O)COc1cccc(NC(=O)c2ccccc2)c1 |  | inactive: 0%
C[C@@H]1CN([C@H](C)CO)C(=O)CCCn2cc(nn2)CO[C@H]1CN(C)S(C)(=O)=O |  | inactive: -10.7%
CCC(=O)N(Cc1cc2ccccc2[nH]c1=O)c1ccccc1OC | inconclusive: 16.4 µM [cytotoxic, single point] | 
O=c1[nH]c(=S)[nH]c2c1C(c1ccc(F)cc1)OC(CCC(F)(F)F)C2 (centres undefined) |  | inactive: 5.52%
Cc1ccc(-c2csc3ncnc(Cl)c23)cc1 | inconclusive: 10.3 µM [cytotoxic, partial curve, poor fit] | 
CCc1ccc(/C=C2\SC(=S)N(CCCC(=O)N3CCCC3)C2=O)cc1 | inconclusive: 29.1 µM [cytotoxic, single point] | 
C/C(=N\NC(=O)CCc1ccc(S(=O)(=O)N2CCOCC2)cc1)c1ccccc1Cl | inconclusive: 23.1 µM [cytotoxic, single point] | 
COc1ccccc1N(CC(=O)NC1CCCCC1)S(=O)(=O)c1cccs1 | inconclusive: 3.66 µM [cytotoxic, partial curve] | 
Cc1cc(NC(=O)c2ccc3c(c2)OCO3)ccc1NC(=O)c1ccco1 | inconclusive: 29.1 µM [cytotoxic, single point] | 
O=C(CCc1nc(-c2ccccc2F)no1)Nc1ccc(Oc2ccccc2)cc1 | inconclusive: 16.4 µM [cytotoxic, single point] | 
O=C(Nc1nnc(C2CC2)s1)c1cc([N+](=O)[O-])ccc1N1CCCCC1 | inconclusive: 8.2 µM [cytotoxic, partial curve] | 
O=C(NCC(c1ccco1)N1CCN(c2ccccc2F)CC1)C(=O)NC1CC1 (centres undefined) | inconclusive: 6.51 µM [cytotoxic, partial curve] | 
CN(C)c1ccc(Sc2ccc3nc(N)nc(N)c3c2)cc1 | active: 8.2 µM | 
COc1cc(C(=O)N2CCN(c3cccc(C(F)(F)F)c3)CC2)ccc1OCC(=O)N1CCOCC1 | active: 18.4 µM | 
COc1ccc(Cl)cc1NC(=O)NC(C)c1ccncc1 (centres undefined) | active: 18.4 µM | 
Cc1cc(SCC(=O)Nc2cccc(S(N)(=O)=O)c2)c(C)cc1Br | inconclusive: 29.1 µM [rising, single point] | 

3 records picked at random from those above, as already listed:
Compound | Potency | activity change, negative = cytotoxicity
O=C(Nc1nnc(C2CC2)s1)c1cc([N+](=O)[O-])ccc1N1CCCCC1 | inconclusive: 8.2 µM [cytotoxic, partial curve] | 
COc1cc(C(=O)N2CCN(c3cccc(C(F)(F)F)c3)CC2)ccc1OCC(=O)N1CCOCC1 | active: 18.4 µM | 
O=C(NCC(c1ccco1)N1CCN(c2ccccc2F)CC1)C(=O)NC1CC1 (centres undefined) | inconclusive: 6.51 µM [cytotoxic, partial curve] | 

Carrying on.

Compound | Potency | activity change, negative = cytotoxicity
O=C(Cc1noc2ccccc12)Nc1ccc2ccccc2c1 |  | inactive: -6.58%
CC(=O)c1ccc(OCc2cc(C(=O)N(C)Cc3nc4c(C)cccc4[nH]3)no2)cc1 | inconclusive: 29.1 µM [cytotoxic, single point] | 
COc1ccc2c(c1)CCCC21NC(=O)N(CC(=O)c2cc(F)ccc2F)C1=O (centres undefined) | inconclusive: 18.4 µM [cytotoxic, single point] | 
Cc1ccc(N2C(=O)C(Cl)=C(N3CCN(C)CC3)C2=O)c(C)c1 |  | inactive: 7.05%
Cc1ccc(C(=O)CSc2nnc(-c3cccnc3)n2N)cc1 | active: 7.31 µM | 
COCC1CCN(C(=O)c2cc(COc3ccccc3SC)on2)C1 (centres undefined) | inconclusive: 3.26 µM [cytotoxic, full curve, poor fit] | 
O=C(Nc1ccc2ccccc2c1)OC1CCS(=O)(=O)C1 (centres undefined) |  | inactive: 0%
COc1ccc(-n2c(C)cc(C(=O)COc3ccc(C)nc3[N+](=O)[O-])c2C)cc1 | inconclusive: 2.31 µM [cytotoxic, partial curve, poor fit] | 
CCOC(=O)c1sc(=S)n(CC)c1NC(=O)c1ccccc1 | inconclusive: 29.1 µM [cytotoxic, single point] | 
Cc1cc(/C=N/NC(N)=S)c(O)c(/C=N/NC(N)=S)c1 |  | inactive: -4.65%
COC/C=C/C1=CC(=O)C[C@H](c2ccc3c(c2)OCO3)C1 | inconclusive: 23.1 µM [cytotoxic, single point] | 
COc1ccc(CCNC(=O)CNCC(c2ccccc2)N(C)C)cc1OC (centres undefined) | inconclusive: 0.231 µM [rising, full curve, poor fit] | 
O=C(Nc1ccc(Cl)c(Cl)c1)Nc1nc(-c2ccccc2)cs1 | active: 6.51 µM | 
CCOC(=O)N(C)c1c(CC)nc2c(OCc3ccccc3OC)cccn12 | inconclusive: 5.8 µM [cytotoxic, partial curve] | 
CN(C)c1ccc(C(=O)/C=C/c2cccnc2)cc1 | inconclusive: 29.1 µM [cytotoxic, single point] | 
COC(CNC(=O)CC1C(=O)N(Cc2ccccc2)C(C)c2nc3ccccc3n21)OC (centres undefined) | inconclusive: 1.64 µM [rising, partial curve, poor fit] | 
CCCN(Cc1ccccc1)C(=S)NC(=O)c1ccccc1[N+](=O)[O-] | inconclusive: 29.1 µM [cytotoxic, single point] | 
O=C(COC(=O)c1c(Cl)cccc1Cl)NCC1CCCO1 (centres undefined) |  | inactive: -0.0592%
CC(C)c1ccc(NC(=O)Nc2nc(C(N)C(C)C)cs2)cc1 (centres undefined) | inconclusive: 29.1 µM [cytotoxic, single point] | 
COc1ccc(OCCCCn2c(CO)nc3ccccc32)cc1 |  | inactive: 0%
O=C(O)c1ccc(N/N=C/C=C/c2ccc([N+](=O)[O-])o2)cc1 | inconclusive: 20.6 µM [cytotoxic, partial curve, poor fit] | 
O=C1CC(c2ccccc2)Cc2[nH]c(=O)c(C(=O)Nc3cccc(F)c3)cc21 (centres undefined) |  | inactive: -24%
CCOC(=O)c1cccc(Nc2c3c(nc4ccccc24)CCC3)c1 | inconclusive: 16.4 µM [cytotoxic, partial curve] | 

Compound | Potency | activity change, negative = cytotoxicity
COc1ccc(C)cc1Nc1n[n+](-c2ccccc2)c(-c2ccc(SC)cc2)s1 | inconclusive: 29.1 µM [cytotoxic, single point] | 
COCC1CCN(C(=O)CCc2nnc(CCCCc3ccccc3)o2)CC1 | inconclusive: 16.4 µM [cytotoxic, partial curve] | 
Cn1ccnc1SC(=O)N1c2ccccc2Sc2ccccc21 | inconclusive: 20.6 µM [cytotoxic, single point] | 
COc1ccccc1-n1nnnc1SCC(=O)NCC1(N2CCCCC2)CCCCC1 |  | inactive: 3.17%
CC(=O)Oc1ccccc1C(=O)C=Cc1cccc([N+](=O)[O-])c1 | active: 5.8 µM | 
O=C(NCCc1csc(-c2ccc(Cl)cc2)n1)c1cccs1 | inconclusive: 29.1 µM [cytotoxic, single point] | 
O=C(COc1ccccc1)Nc1nnc(-c2ccccc2Cl)o1 | inconclusive: 29.1 µM [cytotoxic, single point] | 
CCC(=O)c1ccc(OC(=O)c2cnccn2)cc1 | inconclusive: 6.51 µM [rising, full curve] | 
C[C@H](NC(=O)c1[nH]cnc1C(=O)Nc1ccc(Cl)cc1)c1ccccc1 | inconclusive: 29.1 µM [cytotoxic, single point] | 
COc1ccc(Cc2nnc(SCc3c(C)noc3C)n2C2CCCCC2)cc1OC | inconclusive: 29.1 µM [cytotoxic, single point] | 
O=Cc1cn(CC(O)Cn2cc(C=O)c3ccccc32)c2ccccc12 |  | inactive: 14.5%
CNC(=S)NC1CC2CCC(C1)N2Cc1ccccc1 (centres undefined) |  | inactive: -21.2%
Cc1cc(N2CCN(Cc3nc(-c4ccc(Cl)cc4)oc3C)CC2)cc(C)n1 | inconclusive: 32.6 µM [cytotoxic, single point] | 
Cc1cccc2nc(COc3ccc4ccccc4c3Br)cn12 | inconclusive: 0.0461 µM [cytotoxic, full curve] | 
O=S(=O)(Nc1ccc2oc3c(c2c1)CCCC3)c1cc(Cl)ccc1Cl |  | inactive: -12.7%
CC(=O)c1c(C)[nH]c(C(=O)OCC(=O)N2CCN(S(=O)(=O)c3ccc(C)cc3C)CC2)c1C | inconclusive: 29.1 µM [cytotoxic, single point] | 
Cc1cc(C)n(-c2nc3ccccc3nc2N2CCN(S(=O)(=O)c3ccc4ccccc4c3)CC2)n1 | inconclusive: 22.4 µM [cytotoxic, single point] | 
COc1ccc(NC(=O)/C(C#N)=C/c2ccc(OCc3cc(=O)n4nc(C)sc4n3)cc2)cc1 | inconclusive: 29.1 µM [rising, single point] | 
O=C1CCCC2=C1C(c1ccc(Cl)cc1)C1C(=O)c3ccccc3C1=N2 (centres undefined) |  | inactive: -20.6%
CCC/C(O)=C1\C(=O)CCCC1=NCCc1c(C)[nH]c2ccc(OC)cc12 | inconclusive: 20.6 µM [cytotoxic, single point] | 
O=C(CNC(=O)c1cc(Cl)cc([N+](=O)[O-])c1)OCC(=O)N1CCCCC1 | inconclusive: 9.2 µM [rising, partial curve] | 
CCOC(=O)C1=C[C@@H](C(C)C)N(S(=O)(=O)c2ccc(C)cc2)[C@H]1c1ccccc1F |  | inactive: -7.15%
CC1=C(C(=O)NC2CCCc3c2cnn3-c2cccc(C)c2C)OCCO1 (centres undefined) | inconclusive: 3.66 µM [cytotoxic, full curve, poor fit] | 
